In article doi:10.1101/2021.12.08.471779:
Positions count from the first letter of the chain named. Results are given in words; binding and its absence hold for the method and conditions named. Binding seen in cells or lysates may run through a third protein.

Chains of the proteins cited; added tags and fusions are not shown. Lines headed by an entry give the natural chain unless they say otherwise; changes in a name come on top.
UniProt P02929, whole entry, looked up, stated change not applied: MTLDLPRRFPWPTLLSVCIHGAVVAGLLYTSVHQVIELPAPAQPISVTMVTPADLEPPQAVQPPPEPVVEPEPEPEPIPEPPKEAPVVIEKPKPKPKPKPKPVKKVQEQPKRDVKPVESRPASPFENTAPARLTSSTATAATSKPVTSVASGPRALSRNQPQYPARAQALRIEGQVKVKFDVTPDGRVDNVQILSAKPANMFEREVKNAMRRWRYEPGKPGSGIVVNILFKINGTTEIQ

Key:
Assay in all cases: cross-linking
[1] = target: T1, FepA D356C (Escherichia coli K-12) (UniProt P05825)
T1 sequence: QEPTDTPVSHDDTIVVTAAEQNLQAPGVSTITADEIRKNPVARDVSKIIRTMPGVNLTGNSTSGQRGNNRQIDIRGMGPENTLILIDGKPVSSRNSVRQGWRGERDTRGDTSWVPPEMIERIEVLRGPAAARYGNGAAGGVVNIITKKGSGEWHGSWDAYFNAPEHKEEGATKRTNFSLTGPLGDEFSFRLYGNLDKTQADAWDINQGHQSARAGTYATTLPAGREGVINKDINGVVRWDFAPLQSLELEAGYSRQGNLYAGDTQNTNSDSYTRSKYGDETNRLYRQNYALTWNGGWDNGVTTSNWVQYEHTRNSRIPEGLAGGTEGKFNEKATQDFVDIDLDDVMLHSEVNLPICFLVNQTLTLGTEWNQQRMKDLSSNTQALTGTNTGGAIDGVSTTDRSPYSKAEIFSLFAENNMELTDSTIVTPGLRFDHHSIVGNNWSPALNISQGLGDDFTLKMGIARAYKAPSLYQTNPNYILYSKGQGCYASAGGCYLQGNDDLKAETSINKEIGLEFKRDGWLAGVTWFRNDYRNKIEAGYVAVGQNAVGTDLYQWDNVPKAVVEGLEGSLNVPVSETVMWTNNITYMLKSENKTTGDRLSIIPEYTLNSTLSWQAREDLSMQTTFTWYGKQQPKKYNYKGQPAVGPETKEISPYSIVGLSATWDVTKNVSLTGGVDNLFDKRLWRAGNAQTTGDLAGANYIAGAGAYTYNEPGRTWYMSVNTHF

[2] = target: T2, FepA T722C (Escherichia coli K-12) (UniProt P05825)
T2 sequence: T1 sequence with C356D, T722C

[3] = target: T3, FepA G54C with the TonB box (residues 12-17) deleted (Escherichia coli K-12) (UniProt P05825)
T3 sequence: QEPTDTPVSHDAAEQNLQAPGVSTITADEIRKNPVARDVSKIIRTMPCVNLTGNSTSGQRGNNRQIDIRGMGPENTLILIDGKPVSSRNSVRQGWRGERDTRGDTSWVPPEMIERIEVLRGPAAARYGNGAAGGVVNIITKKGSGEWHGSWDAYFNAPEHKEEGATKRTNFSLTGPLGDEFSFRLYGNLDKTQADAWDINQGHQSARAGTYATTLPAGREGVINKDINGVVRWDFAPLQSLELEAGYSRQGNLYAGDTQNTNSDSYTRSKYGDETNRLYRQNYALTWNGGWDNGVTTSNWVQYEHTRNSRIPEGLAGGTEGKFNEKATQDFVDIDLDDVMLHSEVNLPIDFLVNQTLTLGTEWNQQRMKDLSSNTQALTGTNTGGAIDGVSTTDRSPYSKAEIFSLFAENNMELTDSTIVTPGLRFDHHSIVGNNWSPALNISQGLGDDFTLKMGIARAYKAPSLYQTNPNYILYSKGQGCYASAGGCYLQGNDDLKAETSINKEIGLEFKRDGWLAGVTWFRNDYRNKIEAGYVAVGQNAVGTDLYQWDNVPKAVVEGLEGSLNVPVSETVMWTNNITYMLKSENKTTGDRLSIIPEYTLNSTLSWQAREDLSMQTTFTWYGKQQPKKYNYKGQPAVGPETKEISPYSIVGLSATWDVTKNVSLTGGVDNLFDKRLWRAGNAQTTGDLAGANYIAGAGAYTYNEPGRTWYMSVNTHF

Row | Substance | binding [1] | binding [2] | binding [3]
1 | TonB C18G A209C (from UniProt P02929 1-239) | no binding | no binding | –
2 | TonB C18G Q160C (from UniProt P02929 1-239) | no binding | – | no binding
3 | TonB C18G V206C (from UniProt P02929 1-239) | no binding | no binding | –
